Reference: patent publication US20230108492A1
These are yes or no findings as the source states them, for the method shown. Binding seen in cells or lysates may run through a third protein. Some binding calls cover weakened binding; strength is not graded here.

Amino acid sequences for entries named in this document (tags omitted).
UniProt P29351: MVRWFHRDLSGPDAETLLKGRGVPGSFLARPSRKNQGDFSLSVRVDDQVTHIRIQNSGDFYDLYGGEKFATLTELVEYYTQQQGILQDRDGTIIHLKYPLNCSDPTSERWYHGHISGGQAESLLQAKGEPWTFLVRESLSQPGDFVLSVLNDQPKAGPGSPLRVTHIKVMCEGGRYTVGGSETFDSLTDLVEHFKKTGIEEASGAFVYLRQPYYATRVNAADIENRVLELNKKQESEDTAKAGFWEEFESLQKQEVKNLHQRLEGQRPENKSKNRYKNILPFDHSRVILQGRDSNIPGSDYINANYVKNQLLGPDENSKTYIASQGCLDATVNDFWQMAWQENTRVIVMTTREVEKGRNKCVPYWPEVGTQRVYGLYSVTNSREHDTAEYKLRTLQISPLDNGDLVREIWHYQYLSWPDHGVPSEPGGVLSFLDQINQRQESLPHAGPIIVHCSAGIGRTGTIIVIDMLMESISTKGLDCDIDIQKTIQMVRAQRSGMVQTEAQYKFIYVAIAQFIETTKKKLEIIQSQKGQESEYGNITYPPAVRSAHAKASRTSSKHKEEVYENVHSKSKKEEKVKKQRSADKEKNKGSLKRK

Experiments:
SHP-1 (mouse) [1] = molecular target: SHP-1 (mouse) (UniProt P29351); experiment: co-immunoprecipitation: Siglec G immunoprecipitated from CD24Fc-stimulated CD24-/- spleen cells, probed with anti-SHP-1
SHP-1 (mouse) [2] = molecular target: SHP-1 (mouse) (UniProt P29351); experiment: co-immunoprecipitation: Siglec G immunoprecipitated, probed with anti-SHP-1 (FIG. 5C legend)

binding (SHP-1 (mouse) [1]): binds
binding (SHP-1 (mouse) [2]): binds
B1: Siglec G (mouse homologue of human Siglec 10) (receptor, UniProt Q80ZE3 18-688, looked up)
chain: QMESYFLQVQRIVKAQEGLCIFVPCSFSSPEGKWLNRSPLYGYWFKGIRKPSLSFPVATNNKDKVLEWEARGRFQLLGDISKKNCSLLIKDVQWGDSTNYFFRMERGFERFSFKEEFRLQVEALTQKPDIFIPEVLEPGEPVTVVCLFSWTFNQCPAPSFSWMGDAVSFQESRPHTSNYSVLSFIPGLQHHDTELTCQLDFSRMSTQRTVRLRVAYAPRSLAISIFHDNVSVPDLHENPSHLEVQQGQSLRLLCTADSQPPATLSWVLEDQVLSWSSPVGSRTLALELPWVKAGDSGHYTCQAENRLGSQQHTLDLSVLYPPQDLRVTVSQANRTVLEILRNAISLPVLEGQSLCLVCVTYSNPPANVSWAWVTQTLIPIQSSEPGVLELPLVQREHEGEFTCAAQNPLGAQRISLSLSVHYPPQMSSPSCSWEAKGLHCNCSSRAWPAPSLRWRLGEGLLEGNSSNASFTVTFSSLGPWVNSSLSLLQELGPSLWLSCESWNTHGAQTTSVLLLPDKDSATAFSKGAVLGFGITALLALCLIVVIVKTLQKKGTQEEPSRPKLSRGSTILDYINVVPKTRSLARNWKAEPDAPSRSSPLDTHFPKPKKKQKDPHFTYPGCPDPTSSSQVPVSENNPEELHYAALNFSRLRLQETQDPQDTYSDYTEVRVH
